Data as given in PubChem BioAssay AID504467 (National Center for Advancing Translational Sciences (NCATS), 2011).
Out of some 330,000 compounds screened, about 7,700 (2.3%) were called active. The shares of active, inactive and inconclusive entries below differ from those in the screen. The call rests on the fitted dose curve; in most records, active means well fitted inhibition curve with a large enough effect; inconclusive means small, poorly fitted or top-dose-only effect, or effect the other way; inactive means flat fitted curve, though single readings scatter. A potency beside an inconclusive call is a rough fit, not a confirmed value.

Assay: qHTS screen for small molecules that inhibit ELG1-dependent DNA repair in human embryonic kidney (HEK293T) cells expressing luciferase-tagged ELG1; further: nearly all actives have a fitted effect of over 55% in size
Details: HEK293T ELG1-luciferase reporter, luminescence, 16 h, DNA damage induced by 5-fluorouridine; activity change, negative = inhibition: at 46.1 µM (top of the series)
Method in brief: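 Overnight (16 hr) co-exposure of 2,000 cells/well to 5-fluorouridine and compound at 37 °C preceded detection. Luciferase was quantified via ONE-Glo luminescence; loss of signal denotes inhibition.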
On the % scale 0 is the no-effect control and ±100 the full control effect; potency means the concentration at half of the fitted maximal effect.

Row | Structure (SMILES) | activity change, negative = inhibition | Potency
1 | O=C1CCc2ccccc2N1Cc1ccccc1 | inactive: -9.53% | 
2 | CC1CCCC(NC(=O)COC(=O)COc2ccc(C#N)cc2)C1C (stereo not drawn) |  | inconclusive: 16.4 µM [activator, partial curve, poor fit]
3 | O=C(c1cc2nc(-c3cccs3)cc(C(F)(F)Cl)n2n1)N1CCCc2ccccc21 |  | inconclusive: 16.4 µM [inhibitor, single point]
4 | COc1ccc(Br)c(C(=O)Nc2cccc(S(=O)(=O)N3CCOCC3)c2)c1 | inactive: -4.47% | 
5 | Cc1nnc(SCC(=O)N2CCc3ccccc32)s1 |  | inconclusive: 18.4 µM [activator, single point]
6 | CCc1nnc(NC(=O)Cc2cccs2)s1 |  | inconclusive: 23.1 µM [activator, partial curve, poor fit]
7 | Cc1ccc(CN2CC(=O)N3[C@H]4c5ccccc5OC[C@@H]4[C@H](c4ccccc4)[C@]3(C)C2=O)cc1 |  | inconclusive: 29.1 µM [inhibitor, single point]
8 | Cc1ccc(-c2c[n+](CC(=O)OCc3ccccc3)c3n2CCC3)cc1 | inactive: 9.14% | 
9 | CC1CCC(NC(=S)NCCN(C)C)CC1 (stereo not drawn) |  | inconclusive: 23.1 µM [activator, partial curve]
10 | COc1cccc(/C=N/N=C(\N)c2nonc2N)c1O |  | inconclusive: 7.3 µM [activator, partial curve]
11 | COc1ccc(CCN2CC(O)=C(c3nc4ccccc4c(=O)[nH]3)C2=N)cc1OC |  | inconclusive: 23.1 µM [inhibitor, single point]
12 | COC(=O)c1ccc(NC(=O)C2CC(=O)N(c3cc(C)ccc3C)C2)cc1 (stereo not drawn) | inactive: 1.88% | 
13 | CC1CN(C(=O)Cn2cc(S(=O)(=O)CC(=O)N3CCOCC3)c3ccccc32)CC(C)O1 (stereo not drawn) | inactive: 16.5% | 
14 | CCn1c(C)nc2cc(NC(=O)Nc3cccc(C(C)=O)c3)ccc21 |  | inconclusive: 2.06 µM [activator, partial curve, poor fit]
15 | N#CC(C(=O)c1ccco1)c1ccccn1 (stereo not drawn) |  | inconclusive: 32.6 µM [activator, single point]
16 | CCc1c(C(=O)N/N=C/c2ccc(OCc3ccc(F)cc3)c(OC)c2)nnn1-c1nonc1N | inactive: -10.8% | 
17 | CC(C)NC(=O)NC(=O)COC(=O)c1c2c(nc3ccccc13)CCC2 |  | active: 23.1 µM
18 | CC(C)c1ccc(/C=C/C(=O)N2CCOCC2)cc1 |  | inconclusive: 16.4 µM [activator, partial curve]
19 | O=C(NC(=S)NC(CO)Cc1ccccc1)c1ccc(F)cc1 (stereo not drawn) |  | inconclusive: 8.2 µM [activator, partial curve]
20 | COc1ccc2cc3cc(C(=O)Nc4cc(OC)c(OC)c(OC)c4)oc3nc2c1 |  | active: 16.4 µM
21 | O=C(Nc1nccs1)C(=O)c1c[nH]c2ccccc12 |  | inconclusive: 3.66 µM [activator, partial curve]
22 | COc1ccc2nc(SCC(=O)N3CC(=O)Nc4ccccc43)c(C#N)cc2c1 |  | active: 16.4 µM
23 | CC(=O)c1cccc(NC(=O)c2ccc(CN3CCc4ccccc4C3)cc2)c1 |  | active: 8.2 µM
24 | CC(=O)c1cccc(S(=O)(=O)N2CCCC(c3nc4c(nnn4Cc4cccc(Cl)c4)c(=O)[nH]3)C2)c1 (stereo not drawn) |  | inconclusive: 32.6 µM [inhibitor, single point]
25 | CCOC(=O)Cc1c(C)nc2c(-c3ccc(Cl)cc3)c(C)nn2c1C |  | inconclusive: 16.4 µM [inhibitor, partial curve]

Row | Structure (SMILES) | activity change, negative = inhibition | Potency
26 | CCC(C)(C)NC(=O)C(c1cccc(OC)c1)N(C(=O)c1ccn[nH]1)c1cccc(OC)c1 (stereo not drawn) |  | inconclusive: 23.1 µM [inhibitor, single point]
27 | COc1ccccc1NC(=O)C1=C(C)Nc2nc(-c3ccccc3)nn2C1c1ccccn1 (stereo not drawn) |  | inconclusive: 16.4 µM [inhibitor, partial curve]
28 | O=C(CNCC1(N2CCOCC2)CCCCC1)Nc1ccc(Cl)cc1 | inactive: 6.04% | 
29 | CC(C)Cn1c(N)c(C(=O)CSc2nncs2)c(=O)n(C)c1=O |  | inconclusive: 29.1 µM [inhibitor, single point]
30 | COc1cccc(N2CCN(C(=O)C3CCCN(c4ncnc5c4nc4n5CCCCC4)C3)CC2)c1 (stereo not drawn) |  | active: 3.26 µM
31 | CCCCn1nc(NC(=O)COC)c2cc3cc(OC)ccc3nc21 |  | inconclusive: 0.013 µM [activator, full curve, poor fit]
32 | CCOCCCNC(=O)C(c1ccc(OC)cc1)N(Cc1ccc2c(c1)OCO2)C(=O)CNC(C)=O (stereo not drawn) |  | inconclusive: 32.6 µM [activator, partial curve, poor fit]
33 | CC(=O)NS(=O)(=O)c1ccc(NC(=O)c2ccc(-n3nc(C)cc3C)cc2)cc1 |  | inconclusive: 20.6 µM [activator, partial curve, poor fit]
34 | COc1ccc(CN(C(=O)c2ccc(C)cc2)c2cccc(N)c2)cc1 | inactive: -3.92% | 
35 | O=C(Nc1nnc(-c2ccccc2F)s1)C1CCCO1 (stereo not drawn) |  | inconclusive: 11.6 µM [activator, partial curve]
36 | O=C(COc1ccccc1)Nc1ccc(Cl)cn1 |  | inconclusive: 18.3 µM [activator, partial curve]
37 | CC(C)(C)c1ccc(C(=O)N2CCCC2)s1 |  | inconclusive: 18.3 µM [activator, partial curve]
38 | O=C(NC1=NCCS1)c1ccc(OCC2CCCO2)cc1 (stereo not drawn) |  | inconclusive: 5.8 µM [activator, partial curve]
39 | Fc1ccc(N2CCN(C(c3cccs3)c3nnnn3CCc3ccccc3)CC2)cc1 (stereo not drawn) | inactive: -14% | 
40 | Cc1ccc(C(=O)NCCC(=O)N2CCCC2)cc1 |  | inconclusive: 6.51 µM [activator, partial curve]
41 | CN(C)c1ccc2c3c(ccc(N(C)C)c13)COC2 | inactive: 6.33% | 
42 | Cc1occc1C(=O)NNC(=S)NCc1ccccc1 | inactive: 6.82% | 
43 | Cc1ccc2c(c1)[C@H]1[C@H](CO2)[C@H](c2ccccc2)[C@]2(C)C(=O)Nc3cc(F)c(F)cc3C(=O)N12 | inactive: -4.15% | 
44 | COc1ccc(N/C=C/C(=O)c2ccc(Oc3ncccn3)cc2)cc1 | inactive: 18.1% | 
45 | CC(=O)Nc1ccccc1NC(=O)c1ccc(C)cc1C | inactive: -2.93% | 
46 | CCOC(=O)C1=C(C)NC2=C(C(=O)CC(c3cccs3)C2)C1c1cccs1 (stereo not drawn) |  | inconclusive: 29.1 µM [inhibitor, single point]
47 | O=C(Nc1ccc(Cl)cc1)c1ccc(OC2CSC2)cc1 |  | inconclusive: 11.6 µM [activator, partial curve]
48 | COc1ccc(-c2nnc(Nc3nc4c(OC)cccc4s3)o2)cc1 | inactive: -11.6% | 
49 | CCCC(C)NC(C)C(=O)NC1CCCC1 (stereo not drawn) |  | inconclusive: 29.1 µM [activator, partial curve, poor fit]
50 | CN(c1cccc(NC(=O)c2ccc(C(C)(C)C)cc2)c1)S(C)(=O)=O |  | inconclusive: 29.1 µM [inhibitor, single point]

Entries of single compounds as entered above:
`CN(c1cccc(NC(=O)c2ccc(C(C)(C)C)cc2)c1)S(C)(=O)=O` in the list: Potency: inconclusive: 29.1 µM [inhibitor, single point]
`CC(C)Cn1c(N)c(C(=O)CSc2nncs2)c(=O)n(C)c1=O` in the list: Potency: inconclusive: 29.1 µM [inhibitor, single point]
`Cc1occc1C(=O)NNC(=S)NCc1ccccc1` in the list: activity change, negative = inhibition: inactive: 6.82%
`O=C(Nc1ccc(Cl)cc1)c1ccc(OC2CSC2)cc1` in the list: Potency: inconclusive: 11.6 µM [activator, partial curve]

Remaining list, next part

Row | Structure (SMILES) | activity change, negative = inhibition | Potency
51 | Cn1cc(C(=O)C(=O)NC2CCCCC2)c2ccccc21 |  | inconclusive: 20.6 µM [activator, partial curve]
52 | COC(=O)CSc1nnc(CCc2ccccc2)n1C | inactive: 5.05% | 
53 | COc1ccc(C2CC(=O)c3cnc(NC(=O)c4ccccc4OC)nc3C2)c(OC)c1 (stereo not drawn) |  | inconclusive: 29.1 µM [inhibitor, single point]
54 | Cc1cccc(-c2nc(=S)c3c(o2)CCCC3)c1 |  | inconclusive: 5.17 µM [activator, full curve]
55 | CC(C)N(C(=O)CSc1ccc(S(=O)(=O)N2CCCCC2)cn1)C(C)C | inactive: -12.6% | 
56 | COc1ccc(NC(=O)Nc2cccnc2)cc1 |  | inconclusive: 16.4 µM [activator, partial curve]
57 | CCc1ccc(Oc2cc(Cl)nc(N)n2)cc1 |  | inconclusive: 14.6 µM [activator, partial curve]
58 | OC(COc1ccc2ccccc2c1)CN1CCCC1 (stereo not drawn) | inactive: 19.5% | 
59 | Cc1ccc(C(=O)Nc2ccccc2-c2ccccc2)cc1S(=O)(=O)Nc1ccccc1 |  | inconclusive: 18.3 µM [inhibitor, single point]
60 | COc1ccc(OC)c(S(=O)(=O)Nc2cccc(-c3ccc(N4CCCCCC4)nn3)c2)c1 | inactive: -0.978% | 
61 | NNC(=O)c1[nH]c2ccc(Cl)cc2c1-c1ccccc1 |  | active: 16.4 µM
62 | Cc1ccc(-c2cccc(-c3cc(=O)oc4ccc(C(C)(C)C)cc34)c2)cc1 | inactive: 6.24% | 
63 | CCCc1nnc(SCC(=O)Nc2nnc(CC)s2)n1CC1CCCO1 (stereo not drawn) | inactive: -1.93% | 
64 | Cc1ccccc1C(=O)OCCN1CCOCC1 |  | inconclusive: 14.6 µM [activator, partial curve, poor fit]
65 | CCn1c(NCc2cc(OC)c(OC)c(OC)c2)nc2ccccc21 | inactive: -14.8% | 
66 | CCN1CCN(CCCN(Cc2ccco2)C(=S)Nc2cccc(Cl)c2C)CC1 | inactive: -11.6% | 
67 | Cc1ccc(S(=O)(=O)NC(C)(C)CN2CCC(Cc3ccccc3)CC2)cc1 |  | inconclusive: 32.6 µM [inhibitor, partial curve, poor fit]
68 | CCCc1cc(=O)[nH]c(SCC(=O)Nc2oc(C)c3c(C)n[nH]c(=O)c23)n1 | inactive: 2.78% | 
69 | COc1cc(-c2nnc(-c3ccc(N4CCOCC4)cc3)o2)cc(OC)c1OC | inactive: -24.6% | 
70 | Cc1cc(=O)oc(C)c1C(=O)NCc1c(F)cc(F)cc1F | inconclusive: 47% [activator] | 
71 | O=C(c1ccc(F)cc1)N1CCC(C(=O)N2CCN(S(=O)(=O)c3ccccc3Br)CC2)CC1 |  | inconclusive: 14.6 µM [inhibitor, partial curve, poor fit]
72 | COc1cc2c(cc1OC)/C(=C/C(=O)c1cccc([N+](=O)[O-])c1)NCC2 |  | inconclusive: 16.4 µM [inhibitor, single point]
73 | CCCCNc1c(-c2ccc(SC(C)CC)cc2)nc2cnccn12 (stereo not drawn) |  | inconclusive: 11.6 µM [inhibitor, partial curve]
